Source: PubChem BioAssay AID1159506 (NCATS, 2015).

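Luminescence from an EWS-FLI1 target-promoter (NR0B1) reporter, set against a CMV-promoter reporter, two days after silencing single genes in TC32 Ewing sarcoma cells.
Each siRNA was applied at 20 nM.
A z-score of the log NR0B1-over-CMV signal, less the median of siRNAs with the same seed; more negative means a stronger specific loss of the NR0B1 reporter.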

The strongest results of the screen are mostly left out here.
Sequences are the guide (antisense) strand, without overhang.

| Sequence | target gene | seed-corrected z-score |
|---|---|---|
| `UUAUUGGAGAGUACAGUGU` | PLA2G1B | 0.02684 |
| `AAAUUGGUAGUGUUAAGCU` | CRYGC | 0.6771 |
| `AAUAGACUGAGUACACUGG` | STAM2 | -0.9107 |
| `AUCAUAACCCUGGAGAUUC` | STRADA | -0.9346 |
| `UCCAGUAUGAAUAACCUUG` | LOC730110 | 0.4886 |
| `ACUUUGAUAGGGCUUCUGG` | CSAG2 | 0.8353 |
| `UUCAUAACAAGAUUUGUUU` | GCSH | -0.07141 |
| `UUAUAUAAAAGGCUCAUGA` | C19orf52 | -0.6496 |
| `UUGGUGUCAGGAAUCUUGG` | MAP4K2 | 0.2855 |
| `UAUAUAUCACUAGGUGGUC` | NUDT9 | -0.7472 |
| `UUUGCUGAGGUAACUGUGG` | RASSF3 | -0.3259 |
| `UUAACUCUAACGUGAACGC` | ST20-AS1 | 1.164 |
| `UUUGUCUACAUCCUGAUAG` | SLC27A6 | -0.08724 |
| `UGAUUUAUCGAGGUGAGUG` | MCPH1 | 0.5583 |
| `UACAUAUCGGUGAGGAGCC` | TRUB2 | -0.01187 |
| `AGGUGGUCGAGAGAUAUGC` | NANOS2 | 0.5559 |
| `UUAGUGAACUCGGUGUCGC` | MCC | 0.2175 |
| `UCGUCCAUCAGGGUAGAGC` | TCL1A | -0.3961 |
| `UUAACUCAAACCAUACUCG` | MMRN2 | -0.06853 |
| `UAUCAUUAAUGAAUUCCUC` | ASCC1 | -0.5324 |
| `AACCUCUCGGCAAUGGUUC` | IDI2 | 0.9366 |
| `UGUAUGUCUGGGUAUAAUC` | SLC16A4 | -0.02342 |
| `UGAAGUGCAAUCUUUGAUG` | TOMM34 | -0.7264 |
| `UGGAUAGUCAGGUAUGCCC` | ITIH4 | -0.2942 |
| `UUACGUUGUUCCUUCACUC` | TTC21B | -0.8402 |
| `UAACUUAUUGUUUGAUCCC` | RPGR | -0.1059 |
| `UAGGUGUAGGGAAGUCAGC` | CD80 | -0.08007 |
| `UUCUUGUUGAUUUUCCUCU` | CDX2 | 0.08918 |
| `UUCAUAGUGAAUAGUAAGC` | SNTB2 | -0.4516 |
| `UUGACUGUCAAACUUGUUG` | CGN | -0.1315 |
| `UUCAUGCACAAUGACCUCG` | FLT4 | -0.1549 |
| `UUCUAUGACAUUUAAGACC` | RBM12B | 0.2249 |
| `AAGCUGACAAGCUUAAUGG` | C2orf81 | -1.881 |
| `UCCAGUUCAGCAUUCUCUC` | KRT39 | 0.7161 |
| `AACUUGUUGCGGAUGAGGC` | TMCC2 | -0.1871 |
| `UACAGAUUAGCAGCCUUAC` | ADHFE1 | -0.9517 |
| `UAAAUGGACACCUCGUCUG` | FAM155A | 0.01954 |
| `UGAAUCUCGAUCUACUUCC` | EFCAB11 | 0.3491 |
| `UUGAAAAACCGAUAAAUAC` | GFOD1 | 0.2446 |
| `UCAAUGUUCACAACCAUCC` | KRT32 | -0.4122 |
| `UCUGAGUCAAAGAAGCUGG` | DVL3 | -0.1173 |
| `UGAGGAUGAUGUUAGGCCC` | CRTC2 | -0.05879 |
| `UCCAGUCAAAAUAAACUCC` | TMED8 | 1.668 |
| `UAUAGAAUGAGAUCUCACC` | TRIM75P | -0.6451 |